Record: PubChem BioAssay AID1224826 (NIAID, 2016)
The deposit covers about 17,000 reagents; below is an unselected part. About 1,110 of them (6.6%) count as active. 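Active means lowered or raised reporter signal; replicate intensities are raw and not normalised per plate.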 A number with no mark means an inactive call.

- Assay: 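Genes that change LPS-induced Tnf promoter activity in mouse macrophages when knocked down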 (primary screen)
- Cells: RAW264.7 G9 macrophages from mouse bearing reporters for p65 (GFP) and the Tnf promoter (mCherry)
- Knock-down reagent: siRNA pool against mouse genes, 100 nM
- Timing: 16 h of LPS stimulation, after 2 days of siRNA transfection
- Challenge: bacterial lipopolysaccharide (Salmonella minnesota R595), 10 ng/ml
- Measurement: 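Imaged Tnf reporter mCherry in nuclei, minus background, normalised per plate to the median and expressed as robust z-scores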
- Direction: Tnf reporter robust z-score: higher = stronger Tnf promoter reporter signal after LPS; Tnf reporter intensity: higher = stronger Tnf promoter reporter signal
- Hit rule: 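Called active when robust z-score is at most -1.3, matching the median of the Tlr4 knock-down control, or over 3; control wells and wells with under 50 cells never active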
- Meaning of the calls: active = Tnf reporter clearly lowered or raised; inactive = no clear change in Tnf reporter

| Gene | PubChem SID | Tnf reporter robust z-score | fewer than 50 cells in well | Tnf reporter intensity, replicate 1 | Tnf reporter intensity, replicate 2 |
| --- | --- | --- | --- | --- | --- |
| Csf1r (colony stimulating factor 1 receptor) | SID315466157 | 0.61 | enough cells in well | 237 | 118 |
| Cops3 (COP9 signalosome subunit 3) | SID315470446 | -0.02 | enough cells in well | 211 | 223 |
| Or6k14 (olfactory receptor family 6 subfamily K member 14) | SID315480720 | 0.65 | enough cells in well | 96.1 | 174 |
| Nfam1 (Nfat activating molecule with ITAM motif 1) | SID315474825 | 0.51 | enough cells in well | 202 | 47.1 |
| Gemin8 (gem nuclear organelle associated protein 8) | SID315479332 | 1.02 | enough cells in well | 272 | 285 |
| Hnrnpd (heterogeneous nuclear ribonucleoprotein D) | SID315465578 | -1.9 (active) | enough cells in well | 113 | 42.4 |
| Npy5r (neuropeptide Y receptor Y5) | SID315468234 | 2.17 | enough cells in well | 355 | 186 |
| Hmces (5-hydroxymethylcytosine (hmC) binding, ES cell specific) | SID315478967 | -0.88 | enough cells in well | 137 | 122 |
| Krt86 (keratin 86) | SID315467695 | -0.29 | enough cells in well | 229 | 126 |
| Snx24 (sorting nexing 24) | SID315473759 | -0.73 | enough cells in well | 79.1 | 68.3 |
| Nip7 (NIP7, nucleolar pre-rRNA processing protein) | SID315472257 | 1.66 | enough cells in well | 362 | 134 |
| Mical3 | SID315477454 | 0.01 | enough cells in well | 238 | 107 |
| Or3a1b (olfactory receptor family 3 subfamily A member 1B) | SID315480353 | -0.81 | enough cells in well | 114 | 99.3 |
| Mastl (microtubule associated serine/threonine kinase-like) | SID315472848 | 1.28 | enough cells in well | 253 | 256 |
| Anapc15 (anaphase promoting complex C subunit 15) | SID315475121 | – | fewer than 50 cells per well; well left out of calls | 228 | 116 |
| Ice2 (interactor of little elongation complex ELL subunit 2) | SID315475930 | -0.03 | enough cells in well | 274 | 192 |
| Gpr174 (G protein-coupled receptor 174) | SID315477804 | -0.96 | enough cells in well | 126 | 234 |
| Pdia2 (protein disulfide isomerase associated 2) | SID315473750 | 0.07 | enough cells in well | 273 | 166 |
| Ak3 (adenylate kinase 3) | SID315471419 | -0.13 | enough cells in well | 259 | 149 |
| St6galnac6 | SID315470895 | 1.9 | enough cells in well | 158 | 174 |
| Ccl8 (C-C motif chemokine ligand 8) | SID315469144 | -1.06 | enough cells in well | 170 | 122 |
| Apol8 (apolipoprotein L 8) | SID315479448 | -2.05 (active) | enough cells in well | 52.5 | 60.2 |
| Bcap29 (B cell receptor associated protein 29) | SID315465601 | -0.31 | enough cells in well | 110 | 172 |
| Ovch2 (ovochymase 2) | SID315479743 | -0.94 | enough cells in well | 82.1 | 87.7 |
| Dpy30 (dpy-30, histone methyltransferase complex regulatory subunit) | SID315472356 | – | fewer than 50 cells per well; well left out of calls | 125 | 51.5 |
| Med25 (mediator complex subunit 25) | SID315475162 | -1.21 | enough cells in well | 166 | 35.9 |
| Bex2 (brain expressed X-linked 2) | SID315465627 | 2.67 | enough cells in well | 246 | 257 |
| D930031A20Rik (RIKEN cDNA D930031A20 gene) | SID315481086 | 2.21 | enough cells in well | 347 | 277 |
| Nf2 (neurofibromin 2) | SID315468140 | 1.05 | enough cells in well | 382 | 257 |
| Ank (progressive ankylosis) | SID315465413 | – | fewer than 50 cells per well; well left out of calls | 45.9 | 148 |
| Clec2e (C-type lectin domain family 2, member e) | SID315478986 | 1.1 | enough cells in well | 207 | 212 |
| B830004H01Rik (RIKEN cDNA B830004H01 gene) | SID315481277 | -0.49 | enough cells in well | 182 | 163 |
| Zfp420 (zinc finger protein 420) | SID315479046 | -0.23 | enough cells in well | 169 | 142 |
| Sec23b (SEC23 homolog B, COPII coat complex component) | SID315470524 | 3.67 (active) | enough cells in well | 207 | 247 |
| Trim28 (tripartite motif-containing 28) | SID315469721 | -1.57 (active) | enough cells in well | 131 | 80.4 |
| Tcea3 (transcription elongation factor A (SII), 3) | SID315469605 | 0.36 | enough cells in well | 292 | 131 |
| Lyrm2 (LYR motif containing 2) | SID315476736 | 0.71 | enough cells in well | 264 | 101 |
| Pde4b (phosphodiesterase 4B, cAMP specific) | SID315468436 | 0.97 | enough cells in well | 349 | 218 |
| Bloc1s1 (biogenesis of lysosomal organelles complex-1, subunit 1) | SID315466856 | 0.19 | enough cells in well | 135 | 148 |
| Gpr63 (G protein-coupled receptor 63) | SID315475773 | 0.66 | enough cells in well | 259 | 368 |

Reagents listed so far called active:
| Gene | PubChem SID | Tnf reporter robust z-score | fewer than 50 cells in well | Tnf reporter intensity, replicate 1 | Tnf reporter intensity, replicate 2 |
| --- | --- | --- | --- | --- | --- |
| Hnrnpd (heterogeneous nuclear ribonucleoprotein D) | SID315465578 | -1.9 (active) | enough cells in well | 113 | 42.4 |
| Apol8 (apolipoprotein L 8) | SID315479448 | -2.05 (active) | enough cells in well | 52.5 | 60.2 |
| Sec23b (SEC23 homolog B, COPII coat complex component) | SID315470524 | 3.67 (active) | enough cells in well | 207 | 247 |
| Trim28 (tripartite motif-containing 28) | SID315469721 | -1.57 (active) | enough cells in well | 131 | 80.4 |
